These results are taken from PMC5675994.

The chains behind the UniProt entries cited, without tags or fusion partners. Where a name states a change or a piece, a line headed by the entry shows the natural chain unless it says otherwise.
UniProt Q07540: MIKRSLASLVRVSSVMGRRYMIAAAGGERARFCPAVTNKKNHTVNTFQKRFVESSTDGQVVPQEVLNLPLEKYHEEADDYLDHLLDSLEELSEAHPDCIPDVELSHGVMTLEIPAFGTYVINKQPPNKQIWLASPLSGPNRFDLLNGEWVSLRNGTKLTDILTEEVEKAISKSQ

Assay [1] has as its target Yfh1-His6 (S. cerevisiae) (UniProt Q07540). Description: affinity purification with mass spectrometry; Yfh1-His6 held on Ni-NTA superflow agarose from French-press lysate (108,000xg supernatant) of isolated mitochondria of the Yfh1-His6 yeast strain; 50 mM TrisCl pH 7.5, 80 mM KCl, 10% glycerol, wash 40 mM imidazole with 0.1% Triton X-100, elution 400 mM imidazole; eluate analysed by LC-MS/MS.

Assay [2] has as its target T1, Nfs1-His6 (S. cerevisiae) (UniProt P25374).
T1 sequence: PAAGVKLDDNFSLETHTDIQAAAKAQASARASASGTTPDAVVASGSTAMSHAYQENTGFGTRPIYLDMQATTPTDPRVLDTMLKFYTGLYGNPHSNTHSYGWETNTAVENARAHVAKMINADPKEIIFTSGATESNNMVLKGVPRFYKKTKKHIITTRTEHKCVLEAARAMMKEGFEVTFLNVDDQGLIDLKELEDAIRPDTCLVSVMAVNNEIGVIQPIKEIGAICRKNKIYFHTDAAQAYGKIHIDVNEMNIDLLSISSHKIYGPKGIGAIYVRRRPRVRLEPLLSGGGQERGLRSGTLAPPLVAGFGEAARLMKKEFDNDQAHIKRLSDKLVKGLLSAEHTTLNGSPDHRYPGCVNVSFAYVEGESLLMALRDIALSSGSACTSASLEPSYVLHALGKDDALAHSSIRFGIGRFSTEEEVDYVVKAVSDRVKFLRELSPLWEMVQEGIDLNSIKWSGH
In words: affinity purification with mass spectrometry; Nfs1-His6 held on Ni-NTA superflow agarose from sonicated, cleared lysate of isolated mitochondria of the Gal-Nfs1-His6 yeast strain; 50 mM TrisCl pH 7.5, 80 mM KCl, 10% glycerol, wash 40 mM imidazole, elution 400 mM imidazole; eluate analysed by LC-MS/MS.

These are yes or no findings as the source states them, for the method shown. In cells and extracts the contact can be indirect. These calls come from enrichment with a bait or labelling near it, and not all partners need be listed. For part of these data: Tags and fused reporters may be left off the sequences shown.

B1: Nicotinamidase (protein, UniProt P53184 1-216)
chain: MKTLIVVDMQNDFISPLGSLTVPKGEELINPISDLMQDADRDWHRIVVTRDWHPSRHISFAKNHKDKEPYSTYTYHSPRPGDDSTQEGILWPVHCVKNTWGSQLVDQIMDQVVTKHIKIVDKGFLTDREYYSAFHDIWNFHKTDMNKYLEKHHTDEVYIVGVALEYCVKATAISAAELGYKTTVLLDYTRPISDDPEVINKVKEELKAHNINVVDK
Consider B1, for which the binding entry in assay [1] and in assay [2] was “binds” each time.

B2: Myosin tail region-interacting protein MTI1 (protein, UniProt P47068 1-1157)
chain: MSEPEVPFKVVAQFPYKSDYEDDLNFEKDQEIIVTSVEDAEWYFGEYQDSNGDVIEGIFPKSFVAVQGSEVGKEAESSPNTGSTEQRTIQPEVEQKDLPEPISPETKKETLSGPVPVPAATVPVPAATVPVPAATAVSAQVQHDSSSGNGERKVPMDSPKLKARLSMFNQDITEQVPLPKSTHLDLENIPVKKTIVADAPKYYVPPGIPTNDTSNLERKKSLKENEKKIVPEPINRAQVESGRIETENDQLKKDLPQMSLKERIALLQEQQRLQAAREEELLRKKAKLEQEHERSAVNKNEPYTETEEAEENEKTEPKPEFTPETEHNEEPQMELLAHKEITKTSREADEGTNDIEKEQFLDEYTKENQKVEESQADEARGENVAEESEIGYGHEDREGDNDEEKEEEDSEENRRAALRERMAKLSGASRFGAPVGFNPFGMASGVGNKPSEEPKKKQHKEKEEEEPEQLQELPRAIPVMPFVDPSSNPFFRKSNLSEKNQPTETKTLDPHATTEHEQKQEHGTHAYHNLAAVDNAHPEYSDHDSDEDTDDHEFEDANDGLRKHSMVEQAFQIGNNESENVNSGEKIYPQEPPISHRTAEVSHDIENSSQNTTGNVLPVSSPQTRVARNGSINSLTKSISGENRRKSINEYHDTVSTNSSALTETAQDISMAAPAAPVLSKVSHPEDKVPPHPVPSAPSAPPVPSAPSVPSAPPVPPAPPALSAPSVPPVPPVPPVSSAPPALSAPSIPPVPPTPPAPPAPPAPLALPKHNEVEEHVKSSAPLPPVSEEYHPMPNTAPPLPRAPPVPPATFEFDSEPTATHSHTAPSPPPHQNVTASTPSMMSTQQRVPTSVLSGAEKESRTLPPHVPSLTNRPVDSFHESDTTPKVASIRRSTTHDVGEISNNVKIEFNAQERWWINKSAPPAISNLKLNFLMEIDDHFISKRLHQKWVVRDFYFLFENYSQLRFSLTFNSTSPEKTVTTLQERFPSPVETQSARILDEYAQRFNAKVVEKSHSLINSHIGAKNFVSQIVSEFKDEVIQPIGARTFGATILSYKPEEGIEQLMKSLQKIKPGDILVIRKAKFEAHKKIGKNEIINVGMDSAAPYSSVVTDYDFTKNKFRVIENHEGKIIQNSYKLSHMKSGKLKVFRIVARGYVGW
With B2, the binding entry in assay [1] and in assay [2] was “binds” in each case.

B3: Repressible alkaline phosphatase;Soluble alkaline phosphatase (protein, UniProt P11491 1-566)
chain: MMTHTLPSEQTRLVPGSDSSSRPKKRRISKRSKIIVSTVVCIGLLLVLVQLAFPSSFALRSASHKKKNVIFFVTDGMGPASLSMARSFNQHVNDLPIDDILTLDEHFIGSSRTRSSDSLVTDSAAGATAFACALKSYNGAIGVDPHHRPCGTVLEAAKLAGYLTGLVVTTRITDATPASFSSHVDYRWQEDLIATHQLGEYPLGRVVDLLMGGGRSHFYPQGEKASPYGHHGARKDGRDLIDEAQSNGWQYVGDRKNFDSLLKSHGENVTLPFLGLFADNDIPFEIDRDEKEYPSLKEQVKVALGALEKASNEDKDSNGFFLMVEGSRIDHAGHQNDPASQVREVLAFDEAFQYVLEFAENSDTETVLVSTSDHETGGLVTSRQVTASYPQYVWYPQVLANATHSGEFLKRKLVDFVHEHKGASSKIENFIKHEILEKDLGIYDYTDSDLETLIHLDDNANAIQDKLNDMVSFRAQIGWTTHGHSAVDVNIYAYANKKATWSYVLNNLQGNHENTEVGQFLENFLELNLNEVTDLIRDTKHTSDFDATEIASEVQHYDEYYHELTN
In the case of B3, the binding entry in assay [1] and in assay [2] was “binds” each time.

B4: Alcohol dehydrogenase 3, mitochondrial (protein, UniProt P07246 25-375)
chain: QSTAAIPKTQKGVIFYENKGKLHYKDIPVPEPKPNEILINVKYSGVCHTDLHAWHGDWPLPVKLPLVGGHEGAGVVVKLGSNVKGWKVGDLAGIKWLNGSCMTCEFCESGHESNCPDADLSGYTHDGSFQQFATADAIQAAKIQQGTDLAEVAPILCAGVTVYKALKEADLKAGDWVAISGAAGGLGSLAVQYATAMGYRVLGIDAGEEKEKLFKKLGGEVFIDFTKTKNMVSDIQEATKGGPHGVINVSVSEAAISLSTEYVRPCGTVVLVGLPANAYVKSEVFSHVVKSINIKGSYVGNRADTREALDFFSRGLIKSPIKIVGLSELPKVYDLMEKGKILGRYVVDTSK
Consider B4, for which the binding result in assay [1] and in assay [2] was “binds” in each case.

B5: Peroxisomal acyl-coenzyme A thioester hydrolase 1 (protein, UniProt P41903 1-349)
chain: MSASKMAMSNLEKILELVPLSPTSFVTKYLPAAPVGSKGTFGGTLVSQSLLASLHTVPLNFFPTSLHSYFIKGGDPRTKITYHVQNLRNGRNFIHKQVSAYQHDKLIFTSMILFAVQRSKEHDSLQHWETIPGLQGKQPDPHRYEEATSLFQKEVLDPQKLSRYASLSDRFQDATSMSKYVDAFQYGVMEYQFPKDMFYSARHTDELDYFVKVRPPITTVEHAGDESSLHKHHPYRIPKSITPENDARYNYVAFAYLSDSYLLLTIPYFHNLPLYCHSFSVSLDHTIYFHQLPHVNNWIYLKISNPRSHWDKHLVQGKYFDTQSGRIMASVSQEGYVVYGSERDIRAKF
Regarding B5, the binding result in assay [1] and in assay [2] was “binds” in each case.

B6: Acetolactate synthase catalytic subunit, mitochondrial (protein, UniProt P07342 91-687)
chain: GLTGGQIFNEMMSRQNVDTVFGYPGGAILPVYDAIHNSDKFNFVLPKHEQGAGHMAEGYARASGKPGVVLVTSGPGATNVVTPMADAFADGIPMVVFTGQVPTSAIGTDAFQEADVVGISRSCTKWNVMVKSVEELPLRINEAFEIATSGRPGPVLVDLPKDVTAAILRNPIPTKTTLPSNALNQLTSRAQDEFVMQSINKAADLINLAKKPVLYVGAGILNHADGPRLLKELSDRAQIPVTTTLQGLGSFDQEDPKSLDMLGMHGCATANLAVQNADLIIAVGARFDDRVTGNISKFAPEARRAAAEGRGGIIHFEVSPKNINKVVQTQIAVEGDATTNLGKMMSKIFPVKERSEWFAQINKWKKEYPYAYMEETPGSKIKPQTVIKKLSKVANDTGRHVIVTTGVGQHQMWAAQHWTWRNPHTFITSGGLGTMGYGLPAAIGAQVAKPESLVIDIDGDASFNMTLTELSSAVQAGTPVKILILNNEEQGMVTQWQSLFYEHRYSHTHQLNPDFIKLAEAMGLKGLRVKKQEELDAKLKEFVSTKGPVLLEVEVDKKVPVLPMVAGGSGLDEFINFDPEVERQQTELRHKRTGGKH
As for B6, the binding entry in assay [1] and in assay [2] was “binds” each time.

B7: Protein ISD11 (protein, UniProt Q6Q560 1-94)
chain: MPGFTAPTRRQVLSLYKEFIKNANQFNNYNFREYFLSKTRTTFRKNMNQQDPKVLMNLFKEAKNDLGVLKRQSVISQMYTFDRLVVEPLQGRKH
For B7, the binding result in assay [1] and in assay [2] was “binds” throughout.

B8: Iron sulfur cluster assembly protein 1, mitochondrial (protein, UniProt Q03020 28-165)
chain: SSITKRLYHPKVIEHYTHPRNVGSLDKKLPNVGTGLVGAPACGDVMRLQIKVNDSTGVIEDVKFKTFGCGSAIASSSYMTELVQGMTLDDAAKIKNTEIAKELSLPPVKLHCSMLAEDAIKAAIKDYKSKRNTPTMLS
Consider B8, for which the binding result in assay [1] and in assay [2] was “binds” each time.

B9: Dihydrofolate synthetase (protein, UniProt Q12676 1-427)
chain: MAIELGLSRITKLLEHLGNPQNSLRVLHIAGTNGKGSVCTYLSSVLQQKSYQIGKFTTPHLVHVTDSITINNKPIPLERYQNIRLQLEALNKSHSLKCTEFELLTCTAFKYFYDVQCQWCVIEVGLGGRLDATNVIPGANKACCGITKISLDHESFLGNTLSEISKEKAGIITEGVPFTVIDGTNEASVINVVKERCKALGSELSVTDSQLNGNMIDTNSWGCFDLAKLPLNGEYQIFNLRVAMGMLDYLQMNELIDITKNEVSTRLAKVDWPGRLYRMDYRFDKVSNRTVPILMDGAHNGSAAVELVKYLRKEYGNQPLTFVMAVTHGKNLEPLLQPLLRPIDQVILTRFNNVEGMPWIHATDPEEIKDFILTQGYTKEIVIENDLHQVLPSLAHVSDEQRRPIVVCGSLYLCGELLRIHNSHLRN
Take B9: the binding result in assay [1] and in assay [2] was “binds” each time.
